# According to publication PMC5847048 (Psychopharmacology, 2017):
# Experiments:
# [1] = test system: middle-aged mice (14–15 months old); assay: Contextual serial discrimination (CSD) task; type: in vivo, mouse; conditions: Experiment 1 study B, donepezil 0.3 mg/kg per os daily 9 days, vehicle − 33.21%
# Experimental: Treatments were administered per os daily for nine consecutive days for studies involving the CSD and SA tasks. The 8th and the 9th oral administrations were given 60 min before acquisition and test phases in the CSD task, or before the training and the test sessions in the SA task.
# The studies were carried out on mice according to the procedure described in full by Celerier et al. ([2004]) and Tronche et al. ([2010]) (Fig.1). Briefly, the mouse learns two consecutive spatial discriminations (D1 and D2) in a four hole-board apparatus (45 × 45 × 30 cm) enclosed with gray Plexiglas walls. The floor of the hole-board was interchangeable (white and rough versus black and smooth). […]
# Fig. 1 a Contextual serial discrimination: at the acquisition phase, mice performed two consecutive spatial discrimination sessions varying by the color and texture of the floor, i.e., D1, discrimination 1, and D2, discrimination 2. […] Subsequently, mice were submitted to the test phase in which they were repositioned on the floor of the first discrimination without any food pellet in the apparatus. b Two types of responses were calculated: (i) correct responses corresponding to head-dips into the hole baited at the acquisition of the first discrimination (D1), on the same floor context; (ii) interference responses corresponding to head-dips into the hole baited at the other (second) discrimination (D2). […]
# in vivo = conditions: for AUC(0-t) / Cmax: C57BL/6J, mouse, in vivo, po, 1 mg/kg, repeated, plasma, middle-aged mice; for AUC(0-t): Mean AUClast; for Cmax: Mean Cmax
# Experimental: The sampling times were 30 min, 1, 2, 4, and 6 h.
# Plasma was extracted from the blood sample by centrifugation (+ 4 °C, 1500g, 10 min) and stored at − 80 °C. Then, plasma samples were sent in dry ice to Celerion (Switzerland) for the pharmacokinetic analysis.
# [2] = donepezil 1.0 mg/kg with S 47445 (0.3 mg/kg)
smiles,measurement,setting,value
"COc1cc2c(cc1OC)C(=O)C(CC1CCN(Cc3ccccc3)CC1)C2 (stereo not shown) [Donepezil, reference compound]","Strength of contextual memory (SCM) score, first discrimination D1",[1],18.46%
same,AUC(0-t),in vivo; donepezil 1.0 mg/kg alone,24 ng·h/mL
same,AUC(0-t),in vivo; [2],21.4 ng·h/mL
same,Cmax,in vivo; donepezil 1.0 mg/kg alone,18.5 ng/mL
same,Cmax,in vivo; [2],12 ng/mL
same,Change in donepezil plasma exposure when administered with S 47445,in vivo; donepezil 1 mg/kg with S 47445 0.3 mg/kg,no evidence of a change
same,Plasma concentration at the active doses used in the pharmacological experiments,"in vivo; donepezil, limit of quantification 0.1 ng/ml",below the limit of quantification
